Results from doi:10.1101/2023.02.26.530069.

Target: ΦKZ014, C-terminally TEV-3×FLAG tagged (Pseudomonas phage ΦKZ)
Assay: affinity purification with mass spectrometry

Binder	binding
50S ribosomal protein bL35 (protein, UniProt Q9I0A1 1-64) MPKMKTKSGAAKRFKKTAGGLKHKHAFKSHILTKMTTKRKRQLRGTSMLNKSDVARVERSLRLR	binds
50S ribosomal protein uL30 (protein, UniProt Q9HWF3 1-58) MATVKVTLVKSLNGRLANHKACVKGLGLRRINHTVEVQDTPENRGMINKAYYLLRVEG	binds

These are yes or no findings as the source states them, for the method shown. In cells and extracts the contact can be indirect. A yes stands for co-enrichment or nearness to the bait. Other partners may have been found.
